# Test results taken from the supplement of paper PMC10849652.
# Chains of the proteins cited; added tags and fusions are not shown. Lines headed by an entry give the natural chain unless they say otherwise; changes in a name come on top.
# UniProt Q9BTX7: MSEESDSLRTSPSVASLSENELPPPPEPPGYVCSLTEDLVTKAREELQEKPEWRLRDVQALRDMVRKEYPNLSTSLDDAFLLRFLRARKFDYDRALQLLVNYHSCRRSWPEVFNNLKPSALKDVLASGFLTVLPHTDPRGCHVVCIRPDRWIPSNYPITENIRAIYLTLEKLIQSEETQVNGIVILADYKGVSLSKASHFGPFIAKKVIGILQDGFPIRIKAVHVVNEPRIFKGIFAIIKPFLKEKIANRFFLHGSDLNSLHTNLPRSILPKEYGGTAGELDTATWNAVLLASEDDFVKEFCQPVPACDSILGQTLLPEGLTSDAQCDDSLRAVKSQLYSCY
# UniProt P07437, whole entry, looked up: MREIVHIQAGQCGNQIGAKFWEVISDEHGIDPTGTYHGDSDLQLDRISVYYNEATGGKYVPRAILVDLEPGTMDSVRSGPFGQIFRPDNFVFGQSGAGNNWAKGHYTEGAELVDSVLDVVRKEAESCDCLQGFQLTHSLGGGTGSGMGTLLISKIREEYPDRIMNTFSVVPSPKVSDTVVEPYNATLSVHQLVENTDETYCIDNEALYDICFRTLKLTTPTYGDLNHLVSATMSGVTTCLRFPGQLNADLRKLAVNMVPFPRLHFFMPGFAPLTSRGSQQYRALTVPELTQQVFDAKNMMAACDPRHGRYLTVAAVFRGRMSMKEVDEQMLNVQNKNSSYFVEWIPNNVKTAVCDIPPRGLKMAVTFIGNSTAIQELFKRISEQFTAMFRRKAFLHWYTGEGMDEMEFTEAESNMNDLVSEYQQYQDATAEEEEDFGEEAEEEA
# UniProt Q96RT8, whole entry, looked up: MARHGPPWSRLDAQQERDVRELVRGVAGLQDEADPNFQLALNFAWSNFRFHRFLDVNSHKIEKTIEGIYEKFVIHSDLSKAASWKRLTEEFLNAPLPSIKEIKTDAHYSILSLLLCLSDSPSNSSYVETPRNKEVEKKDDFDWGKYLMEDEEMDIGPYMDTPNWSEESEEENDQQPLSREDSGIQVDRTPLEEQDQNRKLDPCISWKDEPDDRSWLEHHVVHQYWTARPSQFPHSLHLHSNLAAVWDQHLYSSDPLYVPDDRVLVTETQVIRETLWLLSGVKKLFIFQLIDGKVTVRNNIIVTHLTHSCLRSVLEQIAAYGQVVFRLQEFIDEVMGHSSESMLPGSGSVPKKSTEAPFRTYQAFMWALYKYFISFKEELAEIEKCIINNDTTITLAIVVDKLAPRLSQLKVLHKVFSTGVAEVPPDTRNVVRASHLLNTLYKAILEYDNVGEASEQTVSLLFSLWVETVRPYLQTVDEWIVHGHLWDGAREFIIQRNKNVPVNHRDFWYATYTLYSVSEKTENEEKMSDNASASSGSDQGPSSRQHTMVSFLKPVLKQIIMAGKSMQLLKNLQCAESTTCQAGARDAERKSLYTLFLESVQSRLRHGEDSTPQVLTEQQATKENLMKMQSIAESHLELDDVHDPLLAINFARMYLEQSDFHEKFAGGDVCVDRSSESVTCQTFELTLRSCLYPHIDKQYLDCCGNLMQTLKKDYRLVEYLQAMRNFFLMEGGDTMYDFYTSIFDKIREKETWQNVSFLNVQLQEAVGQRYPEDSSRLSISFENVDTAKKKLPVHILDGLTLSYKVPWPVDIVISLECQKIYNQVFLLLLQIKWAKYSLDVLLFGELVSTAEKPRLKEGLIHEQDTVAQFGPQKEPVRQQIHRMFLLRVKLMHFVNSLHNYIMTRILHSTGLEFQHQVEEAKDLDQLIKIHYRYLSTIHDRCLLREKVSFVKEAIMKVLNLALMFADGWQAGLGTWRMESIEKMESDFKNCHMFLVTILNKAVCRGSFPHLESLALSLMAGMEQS
# UniProt O95155, whole entry, looked up: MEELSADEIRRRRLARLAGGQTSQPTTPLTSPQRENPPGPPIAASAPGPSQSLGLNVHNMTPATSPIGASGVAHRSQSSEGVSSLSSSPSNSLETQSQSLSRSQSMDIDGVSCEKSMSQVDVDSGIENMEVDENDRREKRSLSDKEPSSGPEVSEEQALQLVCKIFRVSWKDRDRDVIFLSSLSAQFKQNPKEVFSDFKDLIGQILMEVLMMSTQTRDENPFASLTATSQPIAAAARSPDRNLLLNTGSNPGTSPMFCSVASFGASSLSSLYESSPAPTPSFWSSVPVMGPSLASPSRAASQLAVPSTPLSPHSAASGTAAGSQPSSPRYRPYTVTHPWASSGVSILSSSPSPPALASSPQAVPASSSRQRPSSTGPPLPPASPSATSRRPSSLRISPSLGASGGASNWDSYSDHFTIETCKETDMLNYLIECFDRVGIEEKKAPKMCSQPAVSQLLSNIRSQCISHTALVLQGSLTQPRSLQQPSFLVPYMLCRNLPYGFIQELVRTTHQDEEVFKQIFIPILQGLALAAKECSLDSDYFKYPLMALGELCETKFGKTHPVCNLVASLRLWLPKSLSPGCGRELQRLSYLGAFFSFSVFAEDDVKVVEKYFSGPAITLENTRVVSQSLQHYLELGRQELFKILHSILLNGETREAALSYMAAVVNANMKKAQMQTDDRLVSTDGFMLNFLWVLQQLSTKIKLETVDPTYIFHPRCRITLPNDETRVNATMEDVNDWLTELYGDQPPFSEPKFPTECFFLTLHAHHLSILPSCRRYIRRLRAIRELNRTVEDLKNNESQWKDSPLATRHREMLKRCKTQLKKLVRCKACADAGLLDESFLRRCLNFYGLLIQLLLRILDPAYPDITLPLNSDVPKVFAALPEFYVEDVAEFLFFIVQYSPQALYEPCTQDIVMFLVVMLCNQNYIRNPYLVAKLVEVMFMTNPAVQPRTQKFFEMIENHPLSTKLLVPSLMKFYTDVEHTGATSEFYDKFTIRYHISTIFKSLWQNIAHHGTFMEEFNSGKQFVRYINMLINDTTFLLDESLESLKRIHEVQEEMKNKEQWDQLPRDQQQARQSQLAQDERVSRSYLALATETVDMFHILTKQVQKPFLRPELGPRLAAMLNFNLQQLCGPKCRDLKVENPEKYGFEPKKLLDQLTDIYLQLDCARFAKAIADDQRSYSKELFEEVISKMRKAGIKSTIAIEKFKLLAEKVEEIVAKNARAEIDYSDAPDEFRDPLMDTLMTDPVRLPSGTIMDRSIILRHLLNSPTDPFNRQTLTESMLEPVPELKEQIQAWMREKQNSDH
# UniProt Q9NZ09: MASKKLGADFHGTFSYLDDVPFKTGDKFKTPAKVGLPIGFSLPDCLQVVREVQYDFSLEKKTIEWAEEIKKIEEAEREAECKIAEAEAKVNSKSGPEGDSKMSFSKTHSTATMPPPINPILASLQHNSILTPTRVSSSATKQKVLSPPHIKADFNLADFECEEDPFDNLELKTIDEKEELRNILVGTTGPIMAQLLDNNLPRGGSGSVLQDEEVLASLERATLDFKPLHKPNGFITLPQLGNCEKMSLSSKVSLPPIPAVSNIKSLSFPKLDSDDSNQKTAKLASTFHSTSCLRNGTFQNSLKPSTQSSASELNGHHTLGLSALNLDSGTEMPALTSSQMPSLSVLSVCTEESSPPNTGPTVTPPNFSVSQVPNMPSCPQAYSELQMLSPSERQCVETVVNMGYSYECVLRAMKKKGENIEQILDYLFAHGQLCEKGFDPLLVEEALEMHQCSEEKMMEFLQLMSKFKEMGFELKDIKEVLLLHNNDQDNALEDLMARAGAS
# UniProt P83876: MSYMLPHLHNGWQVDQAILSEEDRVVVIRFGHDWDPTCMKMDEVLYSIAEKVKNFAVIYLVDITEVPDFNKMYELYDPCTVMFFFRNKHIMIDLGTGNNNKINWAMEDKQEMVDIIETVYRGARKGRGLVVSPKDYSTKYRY
# UniProt P11441: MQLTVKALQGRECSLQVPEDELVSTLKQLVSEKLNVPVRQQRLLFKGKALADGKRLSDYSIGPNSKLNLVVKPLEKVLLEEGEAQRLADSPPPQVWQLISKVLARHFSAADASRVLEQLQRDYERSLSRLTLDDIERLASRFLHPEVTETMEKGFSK
# UniProt Q5VYS8: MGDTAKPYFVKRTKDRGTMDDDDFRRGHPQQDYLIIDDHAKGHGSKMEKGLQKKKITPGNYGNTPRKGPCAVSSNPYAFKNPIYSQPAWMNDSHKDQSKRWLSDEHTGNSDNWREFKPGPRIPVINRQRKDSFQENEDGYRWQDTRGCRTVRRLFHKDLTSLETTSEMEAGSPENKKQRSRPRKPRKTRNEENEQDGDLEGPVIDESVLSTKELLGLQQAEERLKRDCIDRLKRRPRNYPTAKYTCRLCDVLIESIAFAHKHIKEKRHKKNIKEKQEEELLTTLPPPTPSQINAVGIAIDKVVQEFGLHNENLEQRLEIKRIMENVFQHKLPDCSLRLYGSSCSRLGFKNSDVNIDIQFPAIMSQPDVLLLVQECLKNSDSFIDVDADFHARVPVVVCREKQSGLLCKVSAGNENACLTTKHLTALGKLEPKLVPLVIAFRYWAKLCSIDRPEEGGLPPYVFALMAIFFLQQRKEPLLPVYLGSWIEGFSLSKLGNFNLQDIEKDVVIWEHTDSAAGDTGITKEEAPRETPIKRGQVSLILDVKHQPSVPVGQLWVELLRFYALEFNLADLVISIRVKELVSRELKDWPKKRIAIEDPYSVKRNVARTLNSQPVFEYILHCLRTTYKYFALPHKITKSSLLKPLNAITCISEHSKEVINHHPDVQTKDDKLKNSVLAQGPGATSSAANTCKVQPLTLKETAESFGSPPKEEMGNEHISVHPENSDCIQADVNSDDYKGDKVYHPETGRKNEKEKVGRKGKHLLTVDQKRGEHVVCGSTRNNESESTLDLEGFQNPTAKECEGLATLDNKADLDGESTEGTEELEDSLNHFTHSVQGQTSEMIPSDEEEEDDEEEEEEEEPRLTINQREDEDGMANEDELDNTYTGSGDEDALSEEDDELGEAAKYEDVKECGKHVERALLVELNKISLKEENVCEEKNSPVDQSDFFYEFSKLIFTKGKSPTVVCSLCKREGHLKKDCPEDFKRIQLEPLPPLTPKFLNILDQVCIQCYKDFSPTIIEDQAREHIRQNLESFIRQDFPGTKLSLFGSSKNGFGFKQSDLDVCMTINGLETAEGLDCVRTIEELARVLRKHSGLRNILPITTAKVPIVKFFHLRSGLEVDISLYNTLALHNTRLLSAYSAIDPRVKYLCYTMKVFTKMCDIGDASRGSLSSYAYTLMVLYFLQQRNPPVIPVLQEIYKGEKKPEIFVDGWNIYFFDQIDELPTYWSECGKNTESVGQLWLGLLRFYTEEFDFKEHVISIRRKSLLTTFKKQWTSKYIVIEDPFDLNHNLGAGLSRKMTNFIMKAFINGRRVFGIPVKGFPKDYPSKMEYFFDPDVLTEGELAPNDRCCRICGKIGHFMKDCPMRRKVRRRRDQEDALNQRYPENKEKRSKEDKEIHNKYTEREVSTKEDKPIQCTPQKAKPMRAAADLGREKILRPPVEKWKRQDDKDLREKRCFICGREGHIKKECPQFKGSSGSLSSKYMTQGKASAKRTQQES
# UniProt Q9UJT0: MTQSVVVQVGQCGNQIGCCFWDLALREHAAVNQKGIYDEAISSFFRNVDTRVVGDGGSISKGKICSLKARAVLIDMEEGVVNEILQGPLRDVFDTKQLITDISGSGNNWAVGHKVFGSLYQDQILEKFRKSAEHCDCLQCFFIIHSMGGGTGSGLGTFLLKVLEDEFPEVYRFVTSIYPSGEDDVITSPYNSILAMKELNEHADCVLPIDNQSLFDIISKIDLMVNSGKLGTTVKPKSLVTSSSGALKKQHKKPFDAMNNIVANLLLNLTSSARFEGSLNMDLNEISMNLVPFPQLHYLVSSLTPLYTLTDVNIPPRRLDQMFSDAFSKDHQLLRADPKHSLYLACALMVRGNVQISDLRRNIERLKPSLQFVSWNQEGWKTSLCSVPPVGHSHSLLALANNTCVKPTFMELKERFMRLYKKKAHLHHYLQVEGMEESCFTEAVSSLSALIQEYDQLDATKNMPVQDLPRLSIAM
# UniProt P49459, whole entry, looked up: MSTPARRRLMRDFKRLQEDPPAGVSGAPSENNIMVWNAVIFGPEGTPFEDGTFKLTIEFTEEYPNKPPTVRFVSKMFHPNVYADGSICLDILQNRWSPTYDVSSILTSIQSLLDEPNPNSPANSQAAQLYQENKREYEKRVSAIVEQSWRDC
# UniProt Q12792, whole entry, looked up: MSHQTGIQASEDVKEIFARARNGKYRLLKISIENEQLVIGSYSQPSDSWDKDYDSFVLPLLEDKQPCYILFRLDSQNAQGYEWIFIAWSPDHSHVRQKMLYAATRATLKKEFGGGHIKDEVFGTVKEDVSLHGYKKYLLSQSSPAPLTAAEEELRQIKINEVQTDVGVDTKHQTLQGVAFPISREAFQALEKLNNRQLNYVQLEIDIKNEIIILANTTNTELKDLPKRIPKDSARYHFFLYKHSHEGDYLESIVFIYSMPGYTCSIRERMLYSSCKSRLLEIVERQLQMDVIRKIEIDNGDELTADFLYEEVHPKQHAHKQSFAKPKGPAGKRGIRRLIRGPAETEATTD
# UniProt O95881: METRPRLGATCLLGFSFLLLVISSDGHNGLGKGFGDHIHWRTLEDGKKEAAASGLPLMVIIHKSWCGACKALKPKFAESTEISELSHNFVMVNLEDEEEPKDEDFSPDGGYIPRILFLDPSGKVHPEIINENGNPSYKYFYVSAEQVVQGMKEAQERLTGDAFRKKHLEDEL
# The other results are listed elsewhere or left out.
# What was measured:
# Assay in all cases: log2 fold change, soluble protein after heating vs DMSO (PISA); higher = thermal stabilisation; K562 lysate, 10 uM; active = over 0.2 and 3.5 SD of the protein, either way, in both replicates (recomputed)
# lapatinib = compound: CS(=O)(=O)CCNCc1ccc(-c2ccc3ncnc(Nc4ccc(OCc5cccc(F)c5)c(Cl)c4)c3c2)o1 [lapatinib]
# Method in brief: (§1)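 Soluble protein was defined as the supernatant remaining after 21,000xg for 90 min, following pooling of heated aliquots and adjustment to 0.5% NP-40 at 4°C. Before that, crude K562 extract at 1 mg/mL protein in PBS pH 7.4 with 1 mM MgCl2 was treated with 10 μM compound for 30 min and heated for 3 min across 48°C-58°C. Quantification used TMTpro 16plex LC-MS/MS with channel sums equalised, and values are log-two fold changes in thermal stability relative to solvent controls from duplicates.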
# pictilisib = compound: CS(=O)(=O)N1CCN(Cc2cc3nc(-c4cccc5[nH]ncc45)nc(N4CCOCC4)c3s2)CC1 [pictilisib]
# Method in brief: as §1
# crizotinib = compound: C[C@@H](Oc1cc(-c2cnn(C3CCNCC3)c2)cnc1N)c1c(Cl)ccc(F)c1Cl [crizotinib]
# Method in brief: as §1
# [1] = compound: C[C@H](C1=CC=C(C=C1)C(=O)NC2=C3C=CNC3=NC=C2)N
# Method in brief: as §1
# duvelisib = compound: C[C@H](Nc1ncnc2nc[nH]c12)c1cc2cccc(Cl)c2c(=O)n1-c1ccccc1 [duvelisib]
# Method in brief: as §1
# gandotinib = compound: Cc1cc(Nc2cc(CN3CCOCC3)c3nc(C)c(Cc4ccc(Cl)cc4F)n3n2)n[nH]1 [gandotinib]
# Method in brief: as §1
# tozasertib = compound: Cc1cc(Nc2cc(N3CCN(C)CC3)nc(Sc3ccc(NC(=O)C4CC4)cc3)n2)n[nH]1 [tozasertib]
# Method in brief: as §1
# doramapimod = compound: Cc1ccc(-n2nc(C(C)(C)C)cc2NC(=O)Nc2ccc(OCCN3CCOCC3)c3ccccc23)cc1 [doramapimod]
# Method in brief: as §1
# bafetinib = compound: Cc1ccc(NC(=O)c2ccc(CN3CC[C@H](N(C)C)C3)c(C(F)(F)F)c2)cc1Nc1nccc(-c2cncnc2)n1 [bafetinib]
# Method in brief: as §1
# [2] = compound: Cc1cccc(CC(=O)N2CCc3c2ccc(-c2cn(C)c4ncnc(N)c24)c3F)n1
# Method in brief: as §1
# nilotinib = compound: Cc1cn(-c2cc(NC(=O)c3ccc(C)c(Nc4nccc(-c5cccnc5)n4)c3)cc(C(F)(F)F)c2)cn1 [nilotinib]
# Method in brief: as §1
# [3] = compound: Cc1nc(Nc2n[nH]c3c2CN(C(=O)N[C@H](CN(C)C)c2ccccc2)C3(C)C)c2sccc2n1
# Method in brief: as §1
# dasatinib = compound: Cc1nc(Nc2ncc(C(=O)Nc3c(C)cccc3Cl)s2)cc(N2CCN(CCO)CC2)n1 [dasatinib]
# Method in brief: as §1
# [4] = compound: Cc1ncc(-c2ccnc(Nc3ccc(S(C)(=O)=O)cc3)n2)n1C(C)C
# Method in brief: as §1
# [5] = compound: Cn1cc(-c2ccc3c(c2)CCN3C(=O)Cc2cccc(C(F)(F)F)c2)c2c(N)ncnc21
# Method in brief: as §1
# quisinostat = compound: Cn1cc(CNCC2CCN(c3ncc(C(=O)NO)cn3)CC2)c2ccccc21 [quisinostat]
# Method in brief: as §1
# tipifarnib = compound: Cn1cncc1[C@@](N)(c1ccc(Cl)cc1)c1ccc2c(c1)c(-c1cccc(Cl)c1)cc(=O)n2C [tipifarnib]
# Method in brief: as §1
# [6] = compound: NC(=O)Nc1cc(-c2cccc(F)c2)sc1C(=O)N[C@H]1CCCNC1
# Method in brief: as §1
# [7] = compound: NC(=O)c1cnc(N[C@@H]2CCCC[C@@H]2N)nc1Nc1cccc(-n2nccn2)c1
# Method in brief: as §1
# [8] = compound: NC1(c2ccc(-c3nc4ccn5c(=O)[nH]nc5c4cc3-c3ccccc3)cc2)CCC1
# Method in brief: as §1
Target,log2 fold change (lapatinib),log2 fold change (pictilisib),log2 fold change (crizotinib),log2 fold change [1],log2 fold change (duvelisib),log2 fold change (gandotinib),log2 fold change (tozasertib),log2 fold change (doramapimod),log2 fold change (bafetinib),log2 fold change [2],log2 fold change (nilotinib),log2 fold change [3],log2 fold change (dasatinib),log2 fold change [4],log2 fold change [5],log2 fold change (quisinostat),log2 fold change (tipifarnib),log2 fold change [6],log2 fold change [7],log2 fold change [8]
TTPAL (UniProt Q9BTX7),inactive: 0.024,inactive: -0.068,inactive: 0.012,inactive: -0.203,inactive: 0.107,inactive: 0.051,inactive: -0.02,inactive: -0.029,inactive: -0.141,inactive: 0.063,inactive: 0,inactive: -0.006,inactive: 0.073,inactive: 0.011,inactive: -0.052,inactive: -0.043,inactive: 0.058,inactive: 0.03,inactive: -0.02,inactive: 0.055
TUBB (UniProt P07437),inactive: -0.035,inactive: -0.002,inactive: -0.043,inactive: -0.005,inactive: 0.008,inactive: 0.065,inactive: -0.022,inactive: -0.047,inactive: 0.024,inactive: -0.01,inactive: 0.067,inactive: 0.016,inactive: -0.043,inactive: -0.001,inactive: -0.011,inactive: 0.004,inactive: 0.022,inactive: 0.048,inactive: -0.022,inactive: -0.003
TUBGCP5 (UniProt Q96RT8),inactive: 0.11,inactive: 0.037,inactive: -0.064,inactive: -0.044,inactive: 0.103,inactive: -0.009,inactive: 0.113,inactive: 0.044,inactive: -0.121,inactive: 0.101,inactive: 0.024,inactive: 0.04,inactive: 0.119,inactive: 0.048,inactive: -0.094,inactive: 0.203,inactive: 0.012,inactive: 0.077,active: -0.68,
UBE4B isoform 4 (UniProt O95155),inactive: -0.019,inactive: -0.009,inactive: -0.023,inactive: -0.029,inactive: 0.012,inactive: 0.003,inactive: 0.014,inactive: 0.001,inactive: -0.029,inactive: 0.009,inactive: 0.008,inactive: 0,inactive: -0.006,inactive: -0.003,inactive: 0.02,inactive: -0.015,inactive: -0.016,inactive: 0.003,inactive: 0.004,inactive: 0
UBAP1 (UniProt Q9NZ09),inactive: 0.015,inactive: -0.033,inactive: 0.012,inactive: 0.008,inactive: -0.011,inactive: 0.007,inactive: -0.019,inactive: -0.017,inactive: 0.078,inactive: -0.033,inactive: -0.003,inactive: -0.048,inactive: -0.005,inactive: 0.038,inactive: 0.014,inactive: -0.013,inactive: -0.095,inactive: 0.028,inactive: 0.083,inactive: 0.044
TXNL4A (UniProt P83876),inactive: -0.032,inactive: 0.023,inactive: -0.02,inactive: -0.161,inactive: -0.012,inactive: 0.004,inactive: 0.005,inactive: 0.013,inactive: 0.042,inactive: 0.018,inactive: -0.003,inactive: -0.033,inactive: -0.03,inactive: 0.024,inactive: 0.035,inactive: -0.068,inactive: -0.029,inactive: 0.03,inactive: -0.001,inactive: -0.01
UBL4A (UniProt P11441),inactive: -0.003,inactive: -0.057,inactive: 0.112,active: 0.253,inactive: 0.007,inactive: -0.157,inactive: 0.076,inactive: -0.029,inactive: -0.044,inactive: -0.06,inactive: -0.005,inactive: -0.013,inactive: 0.052,inactive: -0.037,inactive: 0.036,inactive: 0.157,inactive: -0.024,inactive: 0.02,inactive: 0.007,inactive: 0.016
TUT7 (UniProt Q5VYS8),inactive: -0.002,inactive: -0.003,inactive: 0.045,inactive: 0.135,inactive: -0.034,inactive: -0.158,inactive: -0.035,inactive: -0.082,inactive: -0.128,inactive: -0.03,inactive: 0.002,inactive: 0.019,inactive: 0.042,inactive: 0.042,inactive: -0.144,inactive: -0.028,inactive: -0.006,inactive: -0.051,inactive: 0.002,inactive: 0.057
TUBB4B (UniProt P68371),inactive: 0.027,inactive: 0.017,inactive: -0.027,inactive: 0.053,inactive: -0.029,inactive: 0.004,inactive: 0.011,inactive: -0.024,inactive: 0.027,inactive: -0.043,inactive: 0.049,inactive: -0.05,inactive: -0.025,inactive: -0.034,inactive: -0.005,inactive: 0.033,inactive: -0.001,inactive: 0.006,inactive: -0.019,inactive: 0.009
UBR1 (UniProt Q8IWV7),inactive: -0.018,inactive: -0.035,inactive: -0.082,inactive: -0.046,inactive: 0.01,inactive: -0.081,inactive: 0,inactive: 0.039,inactive: -0.065,inactive: 0.032,inactive: -0.022,inactive: 0.01,inactive: -0.012,inactive: 0.013,inactive: 0.046,inactive: -0.093,inactive: 0.007,inactive: 0.021,inactive: -0.006,inactive: -0.021
TUBE1 (UniProt Q9UJT0),inactive: -0.008,inactive: -0.005,inactive: 0.095,inactive: 0.214,inactive: -0.01,inactive: -0.076,inactive: 0.054,inactive: -0.034,inactive: -0.066,inactive: -0.029,inactive: 0.036,inactive: -0.051,inactive: 0.017,inactive: -0.046,inactive: -0.028,inactive: -0.037,inactive: 0.029,inactive: 0.064,inactive: 0.007,inactive: 0.025
UBE2A (UniProt P49459),inactive: -0.028,inactive: -0.038,inactive: -0.009,inactive: 0.126,inactive: 0.038,inactive: -0.09,inactive: 0.044,inactive: -0.037,inactive: 0.044,inactive: -0.149,inactive: 0.022,inactive: -0.016,inactive: 0.01,inactive: 0.07,inactive: -0.042,inactive: -0.06,inactive: 0.046,inactive: -0.008,inactive: 0.044,inactive: -0.023
UBR5 (UniProt O95071),inactive: -0.003,inactive: -0.009,inactive: -0.055,inactive: -0.01,inactive: -0.004,inactive: -0.018,inactive: 0.001,inactive: 0.012,inactive: -0.047,inactive: 0.046,inactive: 0.006,inactive: 0.027,inactive: -0.028,inactive: -0.019,inactive: 0.019,inactive: -0.059,inactive: -0.02,inactive: 0.005,inactive: 0.013,inactive: -0.009
TTN isoform 12 (UniProt Q8WZ42),inactive: -0.06,inactive: -0.029,inactive: -0.148,inactive: -0.276,inactive: -0.113,inactive: 0.211,inactive: 0.018,inactive: 0.023,inactive: -0.078,inactive: 0.25,inactive: 0.032,inactive: -0.005,inactive: -0.081,inactive: 0.182,inactive: 0.229,inactive: -0.251,inactive: -0.02,inactive: 0,inactive: 0.044,inactive: -0.062
TWF1 (UniProt Q12792),inactive: -0.015,inactive: -0.049,inactive: 0.033,inactive: -0.004,inactive: 0.017,inactive: -0.02,inactive: 0.025,inactive: 0.021,inactive: -0.026,inactive: -0.025,inactive: -0.006,inactive: -0.018,inactive: 0.003,inactive: -0.046,inactive: 0.007,inactive: 0.014,inactive: 0.009,inactive: -0.019,inactive: 0.008,inactive: 0.004
TXNDC12 (UniProt O95881),inactive: -0.007,inactive: 0.014,inactive: 0.016,inactive: 0.024,inactive: 0.021,inactive: -0.013,inactive: 0.054,inactive: 0.017,inactive: 0.019,inactive: -0.028,inactive: 0.005,inactive: -0.002,inactive: -0.005,inactive: -0.047,inactive: -0.004,inactive: 0.075,inactive: 0.059,inactive: -0.04,inactive: -0.01,inactive: 0.032

# 2 entries picked at random from those above:
Target,log2 fold change (lapatinib),log2 fold change (pictilisib),log2 fold change (crizotinib),log2 fold change [1],log2 fold change (duvelisib),log2 fold change (gandotinib),log2 fold change (tozasertib),log2 fold change (doramapimod),log2 fold change (bafetinib),log2 fold change [2],log2 fold change (nilotinib),log2 fold change [3],log2 fold change (dasatinib),log2 fold change [4],log2 fold change [5],log2 fold change (quisinostat),log2 fold change (tipifarnib),log2 fold change [6],log2 fold change [7],log2 fold change [8]
TUBB4B (UniProt P68371),inactive: 0.027,inactive: 0.017,inactive: -0.027,inactive: 0.053,inactive: -0.029,inactive: 0.004,inactive: 0.011,inactive: -0.024,inactive: 0.027,inactive: -0.043,inactive: 0.049,inactive: -0.05,inactive: -0.025,inactive: -0.034,inactive: -0.005,inactive: 0.033,inactive: -0.001,inactive: 0.006,inactive: -0.019,inactive: 0.009
UBR5 (UniProt O95071),inactive: -0.003,inactive: -0.009,inactive: -0.055,inactive: -0.01,inactive: -0.004,inactive: -0.018,inactive: 0.001,inactive: 0.012,inactive: -0.047,inactive: 0.046,inactive: 0.006,inactive: 0.027,inactive: -0.028,inactive: -0.019,inactive: 0.019,inactive: -0.059,inactive: -0.02,inactive: 0.005,inactive: 0.013,inactive: -0.009
